# Measurements from publication PMC5895659, “Mechanistic and Structural Insights Into the Unique TetR-Dependent Regulation of a Drug Efflux Pump in Mycobacterium abscessus” (Frontiers in Microbiology, 2018).
# Molecular target: T1, MAB_4384 (TetR regulator) (UniProt B1MJU8)
# T1 sequence (looked up, limits assumed): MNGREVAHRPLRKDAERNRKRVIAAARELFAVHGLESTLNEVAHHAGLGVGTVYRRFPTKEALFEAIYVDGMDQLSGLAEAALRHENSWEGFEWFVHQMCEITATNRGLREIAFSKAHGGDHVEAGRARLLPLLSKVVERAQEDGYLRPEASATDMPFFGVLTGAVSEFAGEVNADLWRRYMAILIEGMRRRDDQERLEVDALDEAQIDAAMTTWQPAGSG
# Experiment: EMSA
# Settings: EMSA: 280 nM fluorescein probe, 1X TAE, 1 h, room temperature, 6% native PAGE in 1X TAE, recombinant protein
# [1] = similar to Probe 6, label: 5' fluorescein
sequence,measurement,setting,value
CACTTCGCCATAAGCAGATTGACTCTATCTGCTTTTACCCATAGA (double strand) [Probe 8 (di-nucleotide substitutions)],binding result,[1],binds more weakly
CACTTCGCCATAAGTGGATATGCATGACTCTCTGAAGATCCACTTTTACCCATAGA (double strand) [Probe 5 (spacer increased by 10 nt)],binding result,label: 5' fluorescein,binds more weakly
CACTTCGCCATAAGTGGATCATCCACTTTTACCCATAGA (double strand) [Probe 4 (repeats shortened by six nt)],binding result,"severely impeded even at 3.5 uM protein, label: 5' fluorescein",binds more weakly
CACTTCGCCATAAGTGGGCTGACTCTGCCCACTTTTACCCATAGA (double strand) [Probe 7 (di-nucleotide substitutions)],binding result,[1],binds more weakly
CACTTCGCCATGGACTTCGTGACTCTATCCACTTTTACCCATAGA (double strand) [Probe 2 (only right repeat conserved)],binding result,"partial shift at 1.75 uM protein, label: 5' fluorescein",binds more weakly
CACTTCGCCATGGGTGGATTGACTCTATCCACCCTTACCCATAGA (double strand) [Probe 6 (substitutions at repeat extremities)],binding result,"pronounced shift alteration, label: 5' …",binds more weakly

# Construct, isoform or probe ends are uncertain for at least one entry. Weaker means in comparison with the reference protein, sequence or condition of that experiment. Protein sequences can lack the tags named with them.
